The text below walks through data of publication PMC2861645.

Protein sequences, listed by entry. Tags and fused reporters are not part of them. Residues count along the entry.
UniProt P09874: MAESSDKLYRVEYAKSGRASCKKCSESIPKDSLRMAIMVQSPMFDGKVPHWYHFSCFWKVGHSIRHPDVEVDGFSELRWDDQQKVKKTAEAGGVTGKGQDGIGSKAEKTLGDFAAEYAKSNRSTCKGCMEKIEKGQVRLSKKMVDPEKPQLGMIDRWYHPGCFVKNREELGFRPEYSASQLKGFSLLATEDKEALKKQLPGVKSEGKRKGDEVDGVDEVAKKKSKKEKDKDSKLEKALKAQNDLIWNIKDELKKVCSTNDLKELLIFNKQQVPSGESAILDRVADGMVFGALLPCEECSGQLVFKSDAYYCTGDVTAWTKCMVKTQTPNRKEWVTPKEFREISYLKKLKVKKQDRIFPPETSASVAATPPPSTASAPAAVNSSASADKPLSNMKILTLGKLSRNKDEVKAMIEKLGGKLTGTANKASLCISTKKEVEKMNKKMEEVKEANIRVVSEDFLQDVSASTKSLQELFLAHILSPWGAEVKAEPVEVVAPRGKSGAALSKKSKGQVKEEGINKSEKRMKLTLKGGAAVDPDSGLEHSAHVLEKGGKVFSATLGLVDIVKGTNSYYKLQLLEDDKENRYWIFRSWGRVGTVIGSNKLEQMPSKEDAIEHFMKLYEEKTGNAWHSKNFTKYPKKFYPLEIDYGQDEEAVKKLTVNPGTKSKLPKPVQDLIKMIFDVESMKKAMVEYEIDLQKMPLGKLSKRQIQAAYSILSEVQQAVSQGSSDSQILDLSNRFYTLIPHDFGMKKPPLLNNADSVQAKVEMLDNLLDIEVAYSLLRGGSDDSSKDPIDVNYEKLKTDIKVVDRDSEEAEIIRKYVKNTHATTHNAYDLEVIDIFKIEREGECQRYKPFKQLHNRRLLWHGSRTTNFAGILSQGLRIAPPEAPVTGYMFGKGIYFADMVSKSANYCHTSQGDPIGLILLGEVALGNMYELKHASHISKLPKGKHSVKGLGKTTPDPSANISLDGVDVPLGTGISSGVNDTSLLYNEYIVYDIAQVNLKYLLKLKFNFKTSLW
UniProt Q9UGN5: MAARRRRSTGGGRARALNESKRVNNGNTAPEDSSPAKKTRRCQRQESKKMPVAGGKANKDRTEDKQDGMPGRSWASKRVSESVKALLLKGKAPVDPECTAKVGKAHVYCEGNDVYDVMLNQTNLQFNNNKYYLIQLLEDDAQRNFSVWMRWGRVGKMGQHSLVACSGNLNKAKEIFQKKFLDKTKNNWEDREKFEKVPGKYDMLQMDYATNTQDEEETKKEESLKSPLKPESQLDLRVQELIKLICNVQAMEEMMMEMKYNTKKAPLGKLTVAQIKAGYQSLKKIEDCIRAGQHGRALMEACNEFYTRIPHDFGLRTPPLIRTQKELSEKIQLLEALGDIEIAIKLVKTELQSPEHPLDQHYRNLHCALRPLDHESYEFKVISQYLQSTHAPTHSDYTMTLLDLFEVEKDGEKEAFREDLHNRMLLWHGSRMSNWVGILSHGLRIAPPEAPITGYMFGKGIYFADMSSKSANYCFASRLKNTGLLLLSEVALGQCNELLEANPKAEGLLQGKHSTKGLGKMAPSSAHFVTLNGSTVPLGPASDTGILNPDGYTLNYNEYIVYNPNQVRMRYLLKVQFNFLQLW
UniProt Q86W56: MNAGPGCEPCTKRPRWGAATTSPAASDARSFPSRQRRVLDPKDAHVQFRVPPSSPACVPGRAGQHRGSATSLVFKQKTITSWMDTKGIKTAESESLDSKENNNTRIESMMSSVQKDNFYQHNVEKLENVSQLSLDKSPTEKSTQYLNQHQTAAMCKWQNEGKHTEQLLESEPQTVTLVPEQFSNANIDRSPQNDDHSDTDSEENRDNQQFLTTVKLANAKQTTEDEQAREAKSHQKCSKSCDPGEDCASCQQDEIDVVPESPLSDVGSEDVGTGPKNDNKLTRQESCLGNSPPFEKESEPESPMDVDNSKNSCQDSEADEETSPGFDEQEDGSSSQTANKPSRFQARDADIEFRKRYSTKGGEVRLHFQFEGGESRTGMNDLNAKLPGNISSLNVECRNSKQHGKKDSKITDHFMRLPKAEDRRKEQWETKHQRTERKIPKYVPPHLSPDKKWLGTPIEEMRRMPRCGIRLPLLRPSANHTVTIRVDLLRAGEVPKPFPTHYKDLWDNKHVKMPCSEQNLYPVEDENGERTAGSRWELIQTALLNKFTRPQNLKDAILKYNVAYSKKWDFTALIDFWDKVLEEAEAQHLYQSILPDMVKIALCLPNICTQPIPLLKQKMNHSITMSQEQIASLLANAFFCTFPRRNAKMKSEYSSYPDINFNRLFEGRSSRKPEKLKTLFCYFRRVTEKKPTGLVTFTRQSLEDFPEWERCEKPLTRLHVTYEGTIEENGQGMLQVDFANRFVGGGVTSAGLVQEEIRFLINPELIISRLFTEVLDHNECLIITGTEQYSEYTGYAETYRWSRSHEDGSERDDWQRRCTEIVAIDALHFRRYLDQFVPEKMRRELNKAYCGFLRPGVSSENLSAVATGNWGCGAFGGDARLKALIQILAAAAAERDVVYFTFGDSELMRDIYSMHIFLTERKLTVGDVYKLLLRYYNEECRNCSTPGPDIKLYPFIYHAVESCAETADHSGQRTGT
UniProt P10809, residues 27-573: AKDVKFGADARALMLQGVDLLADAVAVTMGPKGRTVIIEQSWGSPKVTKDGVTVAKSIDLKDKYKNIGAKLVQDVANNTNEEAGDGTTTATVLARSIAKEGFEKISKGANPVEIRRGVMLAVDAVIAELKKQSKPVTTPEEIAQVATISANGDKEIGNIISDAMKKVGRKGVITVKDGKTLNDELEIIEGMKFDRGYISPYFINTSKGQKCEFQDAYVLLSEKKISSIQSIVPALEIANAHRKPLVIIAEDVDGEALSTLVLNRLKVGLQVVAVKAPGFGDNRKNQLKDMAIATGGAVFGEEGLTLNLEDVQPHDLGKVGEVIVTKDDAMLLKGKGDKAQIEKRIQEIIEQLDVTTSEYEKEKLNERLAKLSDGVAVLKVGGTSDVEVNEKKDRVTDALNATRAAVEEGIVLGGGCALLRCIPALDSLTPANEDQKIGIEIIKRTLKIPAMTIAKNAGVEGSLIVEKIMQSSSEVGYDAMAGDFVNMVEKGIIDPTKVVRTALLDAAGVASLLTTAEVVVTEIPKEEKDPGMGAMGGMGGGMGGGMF
UniProt P51114: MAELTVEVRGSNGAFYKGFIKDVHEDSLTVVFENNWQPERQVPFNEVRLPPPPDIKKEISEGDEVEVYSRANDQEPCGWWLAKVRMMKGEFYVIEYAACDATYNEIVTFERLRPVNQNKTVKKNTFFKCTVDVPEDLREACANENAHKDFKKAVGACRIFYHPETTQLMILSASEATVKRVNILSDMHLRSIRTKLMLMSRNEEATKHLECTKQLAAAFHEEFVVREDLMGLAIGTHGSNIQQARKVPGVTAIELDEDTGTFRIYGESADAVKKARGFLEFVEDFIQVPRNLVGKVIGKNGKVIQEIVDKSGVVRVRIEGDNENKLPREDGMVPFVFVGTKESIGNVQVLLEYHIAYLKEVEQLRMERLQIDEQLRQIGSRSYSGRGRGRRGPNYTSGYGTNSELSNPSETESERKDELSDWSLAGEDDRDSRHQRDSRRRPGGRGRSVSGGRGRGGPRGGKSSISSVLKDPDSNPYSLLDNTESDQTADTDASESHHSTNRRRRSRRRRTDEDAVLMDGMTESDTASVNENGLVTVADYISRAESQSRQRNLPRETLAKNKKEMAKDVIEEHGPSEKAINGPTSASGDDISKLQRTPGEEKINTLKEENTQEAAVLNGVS
UniProt P51116: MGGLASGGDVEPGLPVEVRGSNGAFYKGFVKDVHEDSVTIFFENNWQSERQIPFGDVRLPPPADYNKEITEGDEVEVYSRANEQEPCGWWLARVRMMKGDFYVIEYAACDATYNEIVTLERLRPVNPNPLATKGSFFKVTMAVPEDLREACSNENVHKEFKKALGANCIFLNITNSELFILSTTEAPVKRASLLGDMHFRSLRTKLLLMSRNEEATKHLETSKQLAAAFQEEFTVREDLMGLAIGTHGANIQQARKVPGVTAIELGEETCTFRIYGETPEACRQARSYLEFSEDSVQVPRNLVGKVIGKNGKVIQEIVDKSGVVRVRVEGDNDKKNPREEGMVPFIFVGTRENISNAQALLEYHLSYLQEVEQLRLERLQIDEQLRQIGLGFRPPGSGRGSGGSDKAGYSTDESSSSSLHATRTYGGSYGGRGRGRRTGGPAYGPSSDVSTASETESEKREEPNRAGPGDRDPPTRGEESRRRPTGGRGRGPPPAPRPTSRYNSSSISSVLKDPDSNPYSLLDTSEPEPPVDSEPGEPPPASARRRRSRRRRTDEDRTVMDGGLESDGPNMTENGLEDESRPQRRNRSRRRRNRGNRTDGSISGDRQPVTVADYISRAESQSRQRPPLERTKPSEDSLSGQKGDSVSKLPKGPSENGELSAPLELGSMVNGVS
UniProt P11142: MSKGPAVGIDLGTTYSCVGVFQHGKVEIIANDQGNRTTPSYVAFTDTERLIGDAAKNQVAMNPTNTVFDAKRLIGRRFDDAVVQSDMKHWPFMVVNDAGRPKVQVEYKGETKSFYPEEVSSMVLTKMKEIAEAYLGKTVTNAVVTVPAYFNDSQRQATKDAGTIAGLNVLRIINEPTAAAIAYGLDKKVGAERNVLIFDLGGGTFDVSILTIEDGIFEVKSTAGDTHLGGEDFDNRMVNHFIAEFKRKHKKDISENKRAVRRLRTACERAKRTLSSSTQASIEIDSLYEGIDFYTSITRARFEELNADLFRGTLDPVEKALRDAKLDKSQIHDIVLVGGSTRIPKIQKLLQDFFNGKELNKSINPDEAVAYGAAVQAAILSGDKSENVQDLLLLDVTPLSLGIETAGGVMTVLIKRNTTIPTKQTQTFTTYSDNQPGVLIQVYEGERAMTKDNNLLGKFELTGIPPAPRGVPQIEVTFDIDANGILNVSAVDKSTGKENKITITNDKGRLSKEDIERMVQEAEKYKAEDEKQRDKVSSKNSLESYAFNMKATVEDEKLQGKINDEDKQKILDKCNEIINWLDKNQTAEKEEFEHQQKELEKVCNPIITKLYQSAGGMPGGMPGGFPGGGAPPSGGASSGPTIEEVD
UniProt P08238: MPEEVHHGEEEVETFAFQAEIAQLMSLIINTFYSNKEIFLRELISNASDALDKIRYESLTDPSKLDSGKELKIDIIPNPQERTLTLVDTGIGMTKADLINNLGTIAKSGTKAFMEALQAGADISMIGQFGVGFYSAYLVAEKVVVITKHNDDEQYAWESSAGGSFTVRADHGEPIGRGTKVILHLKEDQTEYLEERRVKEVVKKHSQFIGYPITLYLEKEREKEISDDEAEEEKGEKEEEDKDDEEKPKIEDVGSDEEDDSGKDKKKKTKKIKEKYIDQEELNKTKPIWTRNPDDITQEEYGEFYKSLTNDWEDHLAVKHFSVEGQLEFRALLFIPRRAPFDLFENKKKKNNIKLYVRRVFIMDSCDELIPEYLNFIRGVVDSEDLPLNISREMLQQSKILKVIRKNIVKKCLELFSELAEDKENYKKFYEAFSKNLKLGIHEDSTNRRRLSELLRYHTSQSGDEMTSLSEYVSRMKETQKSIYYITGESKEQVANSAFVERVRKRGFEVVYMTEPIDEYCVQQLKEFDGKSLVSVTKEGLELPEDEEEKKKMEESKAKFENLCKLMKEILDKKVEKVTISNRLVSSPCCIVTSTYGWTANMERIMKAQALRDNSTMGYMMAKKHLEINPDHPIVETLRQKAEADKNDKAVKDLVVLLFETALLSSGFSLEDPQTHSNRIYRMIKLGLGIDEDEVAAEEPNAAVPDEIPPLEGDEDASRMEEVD
UniProt P11021, residues 19-654: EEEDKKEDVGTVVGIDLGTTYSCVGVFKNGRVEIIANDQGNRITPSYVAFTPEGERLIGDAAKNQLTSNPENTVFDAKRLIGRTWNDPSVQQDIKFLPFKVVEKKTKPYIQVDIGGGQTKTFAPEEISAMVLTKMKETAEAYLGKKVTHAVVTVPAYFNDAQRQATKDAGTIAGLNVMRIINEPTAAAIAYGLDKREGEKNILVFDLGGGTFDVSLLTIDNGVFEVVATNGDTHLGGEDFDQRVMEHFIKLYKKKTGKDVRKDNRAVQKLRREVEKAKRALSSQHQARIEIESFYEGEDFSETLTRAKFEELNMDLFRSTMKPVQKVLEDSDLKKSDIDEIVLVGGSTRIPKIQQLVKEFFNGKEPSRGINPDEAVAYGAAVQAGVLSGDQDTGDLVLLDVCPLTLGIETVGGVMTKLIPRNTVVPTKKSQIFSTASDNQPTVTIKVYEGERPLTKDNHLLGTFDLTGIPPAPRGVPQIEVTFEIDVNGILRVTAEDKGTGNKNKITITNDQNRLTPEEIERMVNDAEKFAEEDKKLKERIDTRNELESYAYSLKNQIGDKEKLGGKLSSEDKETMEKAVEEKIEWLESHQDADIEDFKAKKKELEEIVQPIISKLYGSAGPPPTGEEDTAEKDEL

These are yes or no findings as the source states them, for the method shown. Binding seen in cells or lysates may run through a third protein. A yes stands for co-enrichment or nearness to the bait. Other partners may have been found.

Assay [1] addresses Poly(ADP-ribose) polymerase 1 (PARP-1) (human (endogenous in SK-N-SH or HeLa)) (UniProt P09874). Description: affinity purification with mass spectrometry; PARP-1 immunoprecipitated from human cell lysate (SK-N-SH or HeLa; phosphate or Tris lysis buffer pH 8.0, 150 mM NaCl, 1% NP-40) with monoclonal F1-23 on protein G magnetic beads, 2 h at 4°C; control normal mouse IgG; SDS-PAGE, in-gel trypsin digestion, LC-MS/MS; each hit in at least two pull-downs.

A further assay has as its target FLAG-PARP-2 (UniProt Q9UGN5). Description: affinity purification with mass spectrometry; transiently overexpressed FLAG-PARP-2 or FLAG-PARG immunoprecipitated from human cell lysate (phosphate or Tris lysis buffer pH 8.0, 150 mM NaCl, 1% NP-40) with anti-FLAG M2 on protein G magnetic beads, 2 h at 4°C; control normal mouse IgG; SDS-PAGE, in-gel trypsin digestion, LC-MS/MS; each hit in at least two pull-downs.

A further assay has as its target FLAG-PARG (UniProt Q86W56). Described as above.

With “Replication factor C subunit 4 (from UniProt P35249 1-363)”, the binding entry in assay [1] is given as “binds”. Same read-out and setting: as for “splicing factor 3B1 (from UniProt O75533 1-1304)”, the entry is “binds”.

Consider hnRNP G (from UniProt P38159 1-391), for which the binding result with FLAG-PARP-2 is on record as “binds”. Turning to “heat shock protein 60kDa mitochondrial (from UniProt P10809 27-573)”, the binding entry (in assay [1]; with FLAG-PARP-2) was “binds” in each case. Regarding “Fragile-X mental retardation syndrome-related protein 1 (from UniProt P51114 1-621)”, the binding entry (in assay [1]; with FLAG-PARG; with FLAG-PARP-2) was “binds” each time. FXR2 (from UniProt P51116 1-673): the binding entry with FLAG-PARG and with FLAG-PARP-2 was “binds” throughout. For “catalytic subunit of DNA-dependent protein kinase (DNA-PK) (from UniProt P78527 1-4128) (enzyme)”, the binding result in the assay with FLAG-PARP-2 is “binds”. For the molecule “Replication factor C subunit 2 (from UniProt P35250 1-354)”, the binding result in assay [1] is reported as “binds”. On to HSC70 (from UniProt P11142 1-646), for which the binding entry (in assay [1]; with FLAG-PARG; with FLAG-PARP-2) was “binds” in each case.

Regarding “Polyadenylate-binding protein 1 (from UniProt P11940 1-636)”, the binding entry with FLAG-PARG and with FLAG-PARP-2 was “binds” in each case. Regarding “DEAD box polypeptide 48 (from UniProt P38919 1-411)”, in the assay with FLAG-PARP-2, the binding result is listed as “binds”. As for “U5 snRNP 200 kDa (from UniProt O75643 1-2136)”, the binding result in assay [1] was “binds”. For the molecule “ATP-dependent RNA helicase DDX5 (from UniProt P17844 1-614)”, the binding result in the assay with FLAG-PARG and with FLAG-PARP-2 was “binds” throughout. For the molecule “splicing factor 3B2 (from UniProt Q13435 1-895)”, the binding result in assay [1] is listed as “binds”.

Consider HSP90AB1 (from UniProt P08238 1-724), for which the binding entry (in assay [1]; in the assay with FLAG-PARG; with FLAG-PARP-2) was “binds” throughout. For “Bcl-2-associated transcription factor 1 (from UniProt Q9NYF8 1-920)”, the binding result in assay [1] is “binds”.

Consider “Replication factor C subunit 5 (from UniProt P40937 1-340)”, for which, in assay [1], the binding result is given as “binds”. As to GRP78 (from UniProt P11021 19-654), the binding entry (in assay [1]; with FLAG-PARG; with FLAG-PARP-2) was “binds” in each case. “ATP-dependent DNA helicase II 70 kDa subunit (from UniProt P12956 1-609)”: the binding result in the assay with FLAG-PARP-2 was “binds”.

As for “Replication factor C subunit 3 (from UniProt P40938 1-356)”, the binding entry in assay [1] was “binds”. Consider “nuclease-sensitive element-binding protein 1 (from UniProt P67809 1-324)”, for which the binding result with FLAG-PARG and with FLAG-PARP-2 was “binds” throughout. For “Replication Factor A protein 1 (from UniProt P27694 1-616)”, the binding entry in the assay with FLAG-PARP-2 is “binds”. On to “ATP-dependent DNA helicase II 80 kDa subunit (from UniProt P13010 1-732)”, for which the binding result (in assay [1]; in the assay with FLAG-PARP-2) was “binds” each time.

Consider “Baculoviral IAP repeat-containing protein 6 (from UniProt Q9NR09 1-4857)”, for which the binding result in assay [1] is on record as “binds”. For hnRNP Q (from UniProt O60506 1-623), the binding result with FLAG-PARG is “binds”.

B1: nuclear Fragile-X mental retardation-interacting protein 2 (protein, UniProt Q7Z417 1-695)
chain: MEEKPGQPQPQHHHSHHHPHHHPQQQQQQPHHHHHYYFYNHSHNHHHHHHHQQPHQYLQHGAEGSPKAQPKPLKHEQKHTLQQHQETPKKKTGYGELNGNAGEREISLKNLSSDEATNPISRVLNGNQQVVDTSLKQTVKANTFGKAGIKTKNFIQKNSMDKKNGKSYENKSGENQSVDKSDTIPIPNGVVTNNSGYITNGYMGKGADNDGSGSESGYTTPKKRKARRNSAKGCENLNIVQDKIMQQETSVPTLKQGLETFKPDYSEQKGNRVDGSKPIWKYETGPGGTSRGKPAVGDMLRKSSDSKPGVSSKKFDDRPKGKHASAVASKEDSWTLFKPPPVFPVDNSSAKIVPKISYASKVKENLNKTIQNSSVSPTSSSSSSSSTGETQTQSSSRLSQVPMSALKSVTSANFSNGPVLAGTDGNVYPPGGQPLLTTAANTLTPISSGTDSVLQDMSLTSAAVEQIKTSLFIYPSNMQTMLLSTAQVDLPSQTDQQNLGDIFQNQWGLSFINEPSAGPETVTGKSSEHKVMEVTFQGEYPATLVSQGAEIIPSGTEHPVFPKAYELEKRTSPQVLGSILKSGTTSESGALSLEPSHIGDLQKADTSSQGALVFLSKDYEIESQNPLASPTNTLLGSAKEQRYQRGLERNDSWGSFDLRAAIVYHTKEMESIWNLQKQDPKRIITYNEAMDSPDQ
Consider B1, for which the binding entry with FLAG-PARG is “binds”.

B2: THO complex subunit 5 (protein, UniProt Q13769 1-683)
chain: MSSESSKKRKPKVIRSDGAPAEGKRNRSDTEQEGKYYSEEAEVDLRDPGRDYELYKYTCQELQRLMAEIQDLKSRGGKDVAIEIEERRIQSCVHFMTLKKLNRLAHIRLKKGRDQTHEAKQKVDAYHLQLQNLLYEVMHLQKEITKCLEFKSKHEEIDLVSLEEFYKEAPPDISKAEVTMGDPHQQTLARLDWELEQRKRLAEKYRECLSNKEKILKEIEVKKEYLSSLQPRLNSIMQASLPVQEYLFMPFDQAHKQYETARHLPPPLYVLFVQATAYGQACDKTLSVAIEGSVDEAKALFKPPEDSQDDESDSDAEEEQTTKRRRPTLGVQLDDKRKEMLKRHPLSVMLDLKCKDDSVLHLTFYYLMNLNIMTVKAKVTTAMELITPISAGDLLSPDSVLSCLYPGDHGKKTPNPANQYQFDKVGILTLSDYVLELGHPYLWVQKLGGLHFPKEQPQQTVIADHSLSASHMETTMKLLKTRVQSRLALHKQFASLEHGIVPVTSDCQYLFPAKVVSRLVKWVTVAHEDYMELHFTKDIVDAGLAGDTNLYYMALIERGTAKLQAAVVLNPGYSSIPPVFQLCLNWKGEKTNSNDDNIRAMEGEVNVCYKELCGPWPSHQLLTNQLQRLCVLLDVYLETESHDDSVEGPKEFPQEKMCLRLFRGPSRMKPFKYNHPQGFFSHR
Take B2: the binding entry in assay [1] is “binds”.

B3: THO complex subunit 1 (protein, UniProt Q96FV9 1-657)
chain: MSPTPPLFSLPEARTRFTKSTREALNNKNIKPLLSTFSQVPGSENEKKCTLDQAFRGILEEEIINHSSCENVLAIISLAIGGVTEGICTASTPFVLLGDVLDCLPLDQCDTIFTFVEKNVATWKSNTFYSAGKNYLLRMCNDLLRRLSKSQNTVFCGRIQLFLARLFPLSEKSGLNLQSQFNLENVTVFNTNEQESTLGQKHTEDREEGMDVEEGEMGDEEAPTTCSIPIDYNLYRKFWSLQDYFRNPVQCYEKISWKTFLKYSEEVLAVFKSYKLDDTQASRKKMEELKTGGEHVYFAKFLTSEKLMDLQLSDSNFRRHILLQYLILFQYLKGQVKFKSSNYVLTDEQSLWIEDTTKSVYQLLSENPPDGERFSKMVEHILNTEENWNSWKNEGCPSFVKERTSDTKPTRIIRKRTAPEDFLGKGPTKKILMGNEELTRLWNLCPDNMEACKSETREHMPTLEEFFEEAIEQADPENMVENEYKAVNNSNYGWRALRLLARRSPHFFQPTNQQFKSLPEYLENMVIKLAKELPPPSEEIKTGEDEDEEDNDALLKENESPDVRRDKPVTGEQIEVFANKLGEQWKILAPYLEMKDSEIRQIECDSEDMKMRAKQLLVAWQDQEGVHATPENLINALNKSGLSDLAESLTNDNETNS
For the molecule B3, the binding result in assay [1] was “binds”.

B4: THO complex subunit 6 (protein, UniProt Q86W42 1-341)
chain: MERAVPLAVPLGQTEVFQALQRLHMTIFSQSVSPCGKFLAAGNNYGQIAIFSLSSALSSEAKEESKKPVVTFQAHDGPVYSMVSTDRHLLSAGDGEVKAWLWAEMLKKGCKELWRRQPPYRTSLEVPEINALLLVPKENSLILAGGDCQLHTMDLETGTFTRVLRGHTDYIHCLALRERSPEVLSGGEDGAVRLWDLRTAKEVQTIEVYKHEECSRPHNGRWIGCLATDSDWMVCGGGPALTLWHLRSSTPTTIFPIRAPQKHVTFYQDLILSAGQGRCVNQWQLSGELKAQVPGSSPGLLSLSLNQQPAAPECKVLTAAGNSCRVDVFTNLGYRAFSLSF
Consider B4, for which, in assay [1], the binding result is recorded as “binds”.

B5: RNA-binding protein 14 (protein, UniProt Q96PK6 1-669)
chain: MKIFVGNVDGADTTPEELAALFAPYGTVMSCAVMKQFAFVHMRENAGALRAIEALHGHELRPGRALVVEMSRPRPLNTWKIFVGNVSAACTSQELRSLFERRGRVIECDVVKDYAFVHMEKEADAKAAIAQLNGKEVKGKRINVELSTKGQKKGPGLAVQSGDKTKKPGAGDTAFPGTGGFSATFDYQQAFGNSTGGFDGQARQPTPPFFGRDRSPLRRSPPRASYVAPLTAQPATYRAQPSVSLGAAYRAQPSASLGVGYRTQPMTAQAASYRAQPSVSLGAPYRGQLASPSSQSAAASSLGPYGGAQPSASALSSYGGQAAAASSLNSYGAQGSSLASYGNQPSSYGAQAASSYGVRAAASSYNTQGAASSLGSYGAQAASYGAQSAASSLAYGAQAASYNAQPSASYNAQSAPYAAQQAASYSSQPAAYVAQPATAAAYASQPAAYAAQATTPMAGSYGAQPVVQTQLNSYGAQASMGLSGSYGAQSAAAATGSYGAAAAYGAQPSATLAAPYRTQSSASLAASYAAQQHPQAAASYRGQPGNAYDGAGQPSAAYLSMSQGAVANANSTPPPYERTRLSPPRASYDDPYKKAVAMSKRYGSDRRLAELSDYRRLSESQLSFRRSPTKSSLDYRRLPDAHSDYARYSGSYNDYLRAAQMHSGYQRRM
On to B5, for which the binding entry (in assay [1]; with FLAG-PARP-2) was “binds” in each case.
